Test results taken from patent US8058414B2, “Unnatural polymerase substrates that can sustain enzymatic synthesis of double stranded nucleic acids from a nucleic acid template and methods of use” (Life Technologies Corporation, priority 2008, dated 2011).
Some entries share one result that the patent states for a list of compounds. At least one compound was matched to its structure with a doubt left.

The chains behind the UniProt entries cited, without tags or fusion partners.
UniProt Q56366, whole entry D141A/E143A/Y409V/A485L: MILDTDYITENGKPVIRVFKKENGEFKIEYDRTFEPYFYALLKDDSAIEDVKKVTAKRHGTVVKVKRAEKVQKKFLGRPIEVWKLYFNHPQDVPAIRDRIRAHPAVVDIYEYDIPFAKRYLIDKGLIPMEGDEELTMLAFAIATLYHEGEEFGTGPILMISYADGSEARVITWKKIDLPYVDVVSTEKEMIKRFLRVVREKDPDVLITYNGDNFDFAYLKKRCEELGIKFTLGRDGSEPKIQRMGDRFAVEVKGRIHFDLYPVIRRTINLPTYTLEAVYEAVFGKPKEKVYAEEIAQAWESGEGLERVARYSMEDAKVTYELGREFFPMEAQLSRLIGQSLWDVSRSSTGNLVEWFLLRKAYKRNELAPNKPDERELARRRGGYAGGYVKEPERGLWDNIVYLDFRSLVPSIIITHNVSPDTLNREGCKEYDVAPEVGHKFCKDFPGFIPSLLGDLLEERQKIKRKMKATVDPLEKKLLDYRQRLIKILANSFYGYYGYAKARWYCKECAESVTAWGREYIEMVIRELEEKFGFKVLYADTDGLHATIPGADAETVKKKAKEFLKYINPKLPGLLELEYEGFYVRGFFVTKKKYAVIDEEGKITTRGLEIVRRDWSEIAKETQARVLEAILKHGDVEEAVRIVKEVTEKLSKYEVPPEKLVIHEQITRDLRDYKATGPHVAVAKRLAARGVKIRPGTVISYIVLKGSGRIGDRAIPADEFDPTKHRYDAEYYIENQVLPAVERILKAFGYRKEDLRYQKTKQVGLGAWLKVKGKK

Target: Therminator II polymerase (Thermococcus sp., UniProt Q56366, A485L/D141A/E143A/Y409V)
Assay: Incorporation over a 31 p(dA) template
Assay type: biochemical
Settings: FIG. 20; 31 contiguous dA's

For `Cc1cn([C@H]2C[C@H](O)[C@@H](COP(=O)(O)OP(=O)(O)OP(=O)(O)O)O2)c(=O)[nH]c1=O` [dTTP], the “peaks observed in the electropherogram (incorporation over the length of the template)” value was “more than 31 peaks”.
